Laboratory results from ChEMBL document CHEMBL3525956, “Species independence in brain tissue binding using brain homogenates” (Drug Metab Dispos, 2011).

How the values were obtained:
[1] = Fraction unbound in human occipital cortex at 1 uM after 6 hrs by equilibrium dialysis method
[2] = Fraction unbound in Hartley guinea pig brain homogenates at 1 uM after 6 hrs by equilibrium dialysis method; settings: brain homogenate
[3] = Fraction unbound in Wistar Han rat brain homogenates at 1 uM after 6 hrs by equilibrium dialysis method; settings: brain homogenate
[4] = Fraction unbound in CD-1 mouse brain homogenates at 1 uM after 6 hrs by equilibrium dialysis method; settings: brain homogenate

Structure (SMILES) | fraction unbound at 6 h, 1 µM [1] | fraction unbound at 6 h, 1 µM [2] | fraction unbound at 6 h, 1 µM [3] | fraction unbound at 6 h, 1 µM [4]
Nc1nc2ccc(OC(F)(F)F)cc2s1 [RILUZOLE] | 0.012 | 0.011 | 0.011 | 0.012
COc1cc2c(cc1OC)C(=O)C(CC1CCN(Cc3ccccc3)CC1)C2 (configuration not stated) [DONEPEZIL] | 0.113 | 0.082 | 0.111 | –
